The record followed here is patent US20200054723A1.

Test [1] concerns the target baboon Siglec-8 on baboon eosinophils (baboon). Nature of the test: flow cytometry on peripheral blood eosinophils.
Test [2] has the same target. Nature of the test: flow cytometry on baboon peripheral blood eosinophils.

These are yes or no findings as the source states them, for the method shown. For some assays here: Binding calls can cover weak binding; strength is not graded here.

B1: murine 1H10 antibody (antibody, mouse IgG1, V domains shown)
VH: EVQLQQSGAELVRPGASVKLSCTASGFNIKDYYMYWVKQRPEQGLEWIGRIAPEDGDTEYAPKFQGKATVTADTSSNTAYLHLSSLTSEDTAVYYCTTEGNYYGSSILDYWGQGTTLTVSS
VL: DIQMTQTTSSLSASLGDRVTISCRASQDITNYLNWYQQKPDGTVKLLIYFTSRLHSGVPSRFSGSGSGTDYSLTISNLEQEDIATYFCQQGNTLPWTFGGGTKLEIK
For the molecule B1, the binding entry in test [1] is “binds”.

B2: murine 1C3 antibody (antibody, mouse IgG2a, V domains shown)
VH: EVQVVESGGDLVKSGGSLKLSCAASGFPFSSYAMSWVRQTPDKRLEWVAIISSGGSYTYYSDSVKGRFTISRDNAKNTLYLQMSSLKSEDTAMYYCARHETAQAAWFAYWGQGTLVTVSA
VL: QIVLTQSPAIMSASPGEKVTMTCSASSSVSYMHWYQQKSGTSPKRWIYDTSKLAYGVPARFSGSGSGTSYSLTISSMEAEDAATYYCQQWSSNPPTFGGGTKLEIK
With B2, the binding result in test [2] was “no binding (tested: saturating amounts)”.
